Laboratory results from article PMC11061230.
These are yes or no findings as the source states them, for the method shown. Binding seen in cells or lysates may run through a third protein. A yes stands for co-enrichment or nearness to the bait. Other partners may have been found.

Sequences of proteins named here, by UniProt entry; tags and fusion partners are left off.
UniProt Q9UIH9: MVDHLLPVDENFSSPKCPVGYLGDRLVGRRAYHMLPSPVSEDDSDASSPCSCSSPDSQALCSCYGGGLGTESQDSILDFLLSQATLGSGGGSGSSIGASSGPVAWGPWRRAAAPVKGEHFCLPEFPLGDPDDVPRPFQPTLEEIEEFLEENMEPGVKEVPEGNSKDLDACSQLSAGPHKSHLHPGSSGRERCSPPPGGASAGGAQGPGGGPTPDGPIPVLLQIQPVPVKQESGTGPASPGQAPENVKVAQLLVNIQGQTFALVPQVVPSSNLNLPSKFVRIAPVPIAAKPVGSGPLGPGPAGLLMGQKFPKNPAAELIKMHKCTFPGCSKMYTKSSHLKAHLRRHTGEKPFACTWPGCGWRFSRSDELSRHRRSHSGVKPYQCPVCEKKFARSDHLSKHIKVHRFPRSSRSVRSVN

Target: Flag-KLF15 (Krüppel-like factor 15) (UniProt Q9UIH9)
Experiment: affinity purification with mass spectrometry; HEK293T cells transfected with Flag-KLF15 (controls: pcDNA, Myc-KLF15) for 30 h, lysed in RIPA buffer with protease inhibitors; precipitated with ANTI-FLAG-M2 affinity gel; SDS-PAGE, silver staining, stained proteins excised for LC-MS/MS

binding: binds
B1: myocardin-related transcription factor B (MRTFB), endogenous in HEK293T (protein, UniProt Q9ULH7 1-1088)
chain: MIDSSKKQQQGFPEILTAGDFEPLKEKECLEGSNQKSLKEVLQLRLQQRRTREQLVDQGIMPPLKSPAAFHEQIKSLERARTENFLKHKIRSRPDRSELVRMHILEETFAEPSLQATQMKLKRARLADDLNEKIAQRPGPMELVEKNILPVDSSVKEAIIGVGKEDYPHTQGDFSFDEDSSDALSPDQPASQESQGSAASPSEPKVSESPSPVTTNTPAQFASVSPTVPEFLKTPPTADQPPPRPAAPVLPTNTVSSAKPGPALVKQSHPKNPNDKHRSKKCKDPKPRVKKLKYHQYIPPDQKGEKNEPQMDSNYARLLQQQQLFLQLQILSQQKQHYNYQTILPAPFKPLNDKNSNSGNSALNNATPNTPRQNTSTPVRKPGPLPSSLDDLKVSELKTELKLRGLPVSGTKPDLIERLKPYQEVNSSGLAAGGIVAVSSSAIVTSNPEVTVALPVTTLHNTVTSSVSTLKAELPPTGTSNATRVENVHSPLPISPSPSEQSSLSTDDTNMADTFTEIMTMMSPSQFLSSSPLRMTNNEDSLSPTSSTLSNLELDAAEKDRKLQEKEKQIEELKRKLEQEQKLVEVLKMQLEVEKRGQQQRPLEAQPSAPGHSVKSDQKHGSLGSSIKDEASLPDCSSSRQPIPVASHAVGQPVSTGGQTLVAKKAVVIKQEVPVGQAEQQSVVSQFYVSSQGQPPPAVVAQPQALLTTQTAQLLLPVSIQGSSVTSVQLPVGSLKLQTSPQAGMQTQPQIATAAQIPTAALASGLAPTVPQTQDTFPQHVLSQPQQVRKVFTNSASSNTVLPYQRHPAPAVQQPFINKASNSVLQSRNAPLPSLQNGPNTPNKPSSPPPPQQFVVQHSLFGSPVAKTKDPPRYEEAIKQTRSTQAPLPEISNAHSQQMDDLFDILIKSGEISLPIKEEPSPISKMRPVTASITTMPVNTVVSRPPPQVQMAPPVSLEPMGSLSASLENQLEAFLDGTLPSANEIPPLQSSSEDREPFSLIEDLQNDLLSHSGMLDHSHSPMETSETQFAAGTPCLSLDLSDSNLDNMEWLDITMPNSSSGLTPLSTTAPSMFSADFLDPQDLPLPWD
